Common to all, as to test: affinity purification with mass spectrometry
Test [1] deals with KV11.1-G601S (human) (UniProt Q12809).
Test [2] has as its target wild-type (WT) KV11.1 (human) (UniProt Q12809).
Test [3] addresses KV11.1-G601S (human) (UniProt Q12809). The source holds these as a separate data set.
The target in test [4] is wild-type (WT) KV11.1 (human) (UniProt Q12809). This is another data set of the same source.

Chains of the proteins cited; added tags and fusions are not shown. Lines headed by an entry give the natural chain unless they say otherwise; changes in a name come on top.
UniProt P62258: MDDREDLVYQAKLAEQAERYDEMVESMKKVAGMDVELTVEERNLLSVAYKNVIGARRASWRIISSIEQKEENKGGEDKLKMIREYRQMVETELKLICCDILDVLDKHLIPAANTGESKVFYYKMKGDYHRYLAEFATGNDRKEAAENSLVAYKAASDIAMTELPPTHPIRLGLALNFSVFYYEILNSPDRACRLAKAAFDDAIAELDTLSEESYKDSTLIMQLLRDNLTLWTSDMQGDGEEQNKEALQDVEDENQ
UniProt P46379: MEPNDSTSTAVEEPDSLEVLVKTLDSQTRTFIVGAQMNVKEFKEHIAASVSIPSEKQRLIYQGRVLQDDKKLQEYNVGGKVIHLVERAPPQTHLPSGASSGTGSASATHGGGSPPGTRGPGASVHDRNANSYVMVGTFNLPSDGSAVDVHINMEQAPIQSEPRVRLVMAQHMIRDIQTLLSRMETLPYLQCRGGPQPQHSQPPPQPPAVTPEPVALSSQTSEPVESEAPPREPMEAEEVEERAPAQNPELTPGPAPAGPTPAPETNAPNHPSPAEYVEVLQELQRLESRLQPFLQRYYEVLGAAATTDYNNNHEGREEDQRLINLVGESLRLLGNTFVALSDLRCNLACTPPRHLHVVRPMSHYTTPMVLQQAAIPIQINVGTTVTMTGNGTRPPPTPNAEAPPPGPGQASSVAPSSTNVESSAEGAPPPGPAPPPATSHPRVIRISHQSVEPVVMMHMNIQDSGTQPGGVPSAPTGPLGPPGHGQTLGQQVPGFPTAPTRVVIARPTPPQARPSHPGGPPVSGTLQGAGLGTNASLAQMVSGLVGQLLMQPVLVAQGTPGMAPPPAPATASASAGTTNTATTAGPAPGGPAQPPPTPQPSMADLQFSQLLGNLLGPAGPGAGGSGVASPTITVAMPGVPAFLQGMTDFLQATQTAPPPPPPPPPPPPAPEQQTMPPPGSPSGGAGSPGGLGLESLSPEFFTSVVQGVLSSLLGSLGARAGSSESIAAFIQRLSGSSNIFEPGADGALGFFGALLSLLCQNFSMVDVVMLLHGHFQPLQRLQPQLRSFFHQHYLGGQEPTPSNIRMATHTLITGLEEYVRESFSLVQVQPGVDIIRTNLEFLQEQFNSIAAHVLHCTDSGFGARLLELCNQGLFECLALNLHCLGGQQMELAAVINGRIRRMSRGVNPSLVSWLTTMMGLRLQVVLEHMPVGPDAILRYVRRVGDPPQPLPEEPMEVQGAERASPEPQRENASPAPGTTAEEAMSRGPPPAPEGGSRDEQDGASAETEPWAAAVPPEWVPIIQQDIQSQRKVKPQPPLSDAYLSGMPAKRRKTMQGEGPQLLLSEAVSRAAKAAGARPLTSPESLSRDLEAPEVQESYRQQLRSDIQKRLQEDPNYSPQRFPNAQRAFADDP
UniProt O94822: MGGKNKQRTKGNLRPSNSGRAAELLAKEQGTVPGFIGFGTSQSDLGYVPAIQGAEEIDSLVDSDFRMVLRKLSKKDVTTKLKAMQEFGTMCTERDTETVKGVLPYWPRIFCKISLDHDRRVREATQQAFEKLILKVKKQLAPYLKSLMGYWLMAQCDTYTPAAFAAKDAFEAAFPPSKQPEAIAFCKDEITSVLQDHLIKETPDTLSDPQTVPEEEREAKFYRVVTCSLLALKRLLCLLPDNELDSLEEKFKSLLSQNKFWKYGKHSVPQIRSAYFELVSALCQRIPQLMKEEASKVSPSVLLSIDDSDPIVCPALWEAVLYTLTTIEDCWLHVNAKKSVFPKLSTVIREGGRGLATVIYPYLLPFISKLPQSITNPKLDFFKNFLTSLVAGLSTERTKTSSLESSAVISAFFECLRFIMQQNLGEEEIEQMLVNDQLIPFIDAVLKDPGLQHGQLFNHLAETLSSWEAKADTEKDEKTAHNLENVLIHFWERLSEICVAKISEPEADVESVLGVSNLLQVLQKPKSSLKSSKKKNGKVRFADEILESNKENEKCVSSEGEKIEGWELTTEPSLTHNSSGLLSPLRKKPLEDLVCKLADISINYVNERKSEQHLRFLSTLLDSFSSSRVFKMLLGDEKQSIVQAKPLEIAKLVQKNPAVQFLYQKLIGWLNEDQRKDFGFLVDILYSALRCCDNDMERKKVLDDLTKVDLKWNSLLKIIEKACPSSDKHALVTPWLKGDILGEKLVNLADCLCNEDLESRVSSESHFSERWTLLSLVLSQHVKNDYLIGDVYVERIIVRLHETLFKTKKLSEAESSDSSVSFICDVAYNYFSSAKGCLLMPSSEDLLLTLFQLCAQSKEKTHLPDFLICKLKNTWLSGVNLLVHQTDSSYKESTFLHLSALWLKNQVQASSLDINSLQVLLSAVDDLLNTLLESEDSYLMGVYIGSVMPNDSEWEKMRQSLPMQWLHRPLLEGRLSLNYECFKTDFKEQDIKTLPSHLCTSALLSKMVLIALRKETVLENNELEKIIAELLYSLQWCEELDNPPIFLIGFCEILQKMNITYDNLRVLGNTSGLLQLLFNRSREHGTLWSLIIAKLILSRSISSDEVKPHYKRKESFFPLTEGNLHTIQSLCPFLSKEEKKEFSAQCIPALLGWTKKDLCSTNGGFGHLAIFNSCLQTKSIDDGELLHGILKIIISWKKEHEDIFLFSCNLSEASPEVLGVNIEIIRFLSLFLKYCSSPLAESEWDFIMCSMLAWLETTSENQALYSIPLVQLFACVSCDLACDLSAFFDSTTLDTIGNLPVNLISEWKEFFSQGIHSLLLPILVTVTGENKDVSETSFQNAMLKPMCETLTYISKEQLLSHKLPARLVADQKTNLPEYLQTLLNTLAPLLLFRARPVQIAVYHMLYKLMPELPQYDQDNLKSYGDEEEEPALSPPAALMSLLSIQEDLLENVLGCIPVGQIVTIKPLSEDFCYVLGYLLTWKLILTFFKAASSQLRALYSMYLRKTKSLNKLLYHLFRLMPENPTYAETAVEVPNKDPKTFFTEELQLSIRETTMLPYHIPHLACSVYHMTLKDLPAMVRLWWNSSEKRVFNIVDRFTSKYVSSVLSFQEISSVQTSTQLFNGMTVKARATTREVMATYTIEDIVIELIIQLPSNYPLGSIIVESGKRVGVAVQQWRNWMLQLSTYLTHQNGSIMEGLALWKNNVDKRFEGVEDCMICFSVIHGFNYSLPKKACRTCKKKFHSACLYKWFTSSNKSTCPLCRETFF
UniProt Q9UPT5: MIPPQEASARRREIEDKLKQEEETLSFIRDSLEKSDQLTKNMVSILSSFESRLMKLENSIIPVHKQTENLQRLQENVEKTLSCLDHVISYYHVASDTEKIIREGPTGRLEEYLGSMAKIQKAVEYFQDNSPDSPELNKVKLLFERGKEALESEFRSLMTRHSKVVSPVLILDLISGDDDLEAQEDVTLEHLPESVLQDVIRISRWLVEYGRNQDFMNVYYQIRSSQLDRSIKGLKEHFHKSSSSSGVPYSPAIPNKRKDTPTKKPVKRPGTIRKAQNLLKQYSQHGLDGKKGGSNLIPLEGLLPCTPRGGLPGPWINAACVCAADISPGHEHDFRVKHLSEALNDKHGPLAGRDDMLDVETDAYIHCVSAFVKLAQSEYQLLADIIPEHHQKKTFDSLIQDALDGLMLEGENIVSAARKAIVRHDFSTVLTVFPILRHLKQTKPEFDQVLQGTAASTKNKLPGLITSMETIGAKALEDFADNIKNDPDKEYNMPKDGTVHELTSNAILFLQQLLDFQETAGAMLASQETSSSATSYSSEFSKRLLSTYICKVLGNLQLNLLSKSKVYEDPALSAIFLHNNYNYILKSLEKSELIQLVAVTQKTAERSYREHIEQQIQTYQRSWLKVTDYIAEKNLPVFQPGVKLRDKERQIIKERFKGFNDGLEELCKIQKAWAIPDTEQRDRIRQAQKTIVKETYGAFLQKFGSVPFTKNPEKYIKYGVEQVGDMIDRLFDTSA
UniProt Q14318: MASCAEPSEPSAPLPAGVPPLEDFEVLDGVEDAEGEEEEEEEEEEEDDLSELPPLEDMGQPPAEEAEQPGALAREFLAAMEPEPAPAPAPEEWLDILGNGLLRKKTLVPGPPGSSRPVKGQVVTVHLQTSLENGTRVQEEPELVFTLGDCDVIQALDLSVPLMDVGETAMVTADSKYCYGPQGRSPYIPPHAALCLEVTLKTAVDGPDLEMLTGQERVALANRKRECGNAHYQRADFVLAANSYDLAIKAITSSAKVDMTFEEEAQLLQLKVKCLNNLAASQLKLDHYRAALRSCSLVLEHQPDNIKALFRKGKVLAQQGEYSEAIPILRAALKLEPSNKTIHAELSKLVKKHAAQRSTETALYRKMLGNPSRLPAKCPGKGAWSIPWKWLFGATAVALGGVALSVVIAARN

The record followed here is paper doi:10.1101/2024.01.31.574410.

Read-outs that look alike come from different tables or passages of the source. No constants are given. Whether binding was seen depends on the method and setting. Binding seen in cells or lysates may run through a third protein. Here binding means that the protein was enriched with, or labelled near, the bait; the list need not be complete. For some of these results: Tags and fused reporters may be left off the sequences shown.

Take 14-3-3ε (from UniProt P62258 1-255): the binding result (in the test with KV11.1-G601S (human) [1]; in test [2]) was “binds” in each case. “BCL2-associated athanogene 6 (from UniProt P46379 1-1132)”: the binding entry in the test with KV11.1-G601S (human) [1] is listed as “binds”.

As to “E3 ubiquitin ligase listerin (from UniProt O94822 1-1766)”, in the test with KV11.1-G601S (human) [1], the binding result is “binds”. Still for that read-out and setting: the same measure for EXOC7 (from UniProt Q9UPT5 1-735): “binds”.

For the molecule “FK506 binding protein 8 (from UniProt Q14318 1-412)”, the binding entry with KV11.1-G601S (human) [1] is on record as “binds”.

B1: dolichyl-diphosphooligosaccharide-protein glycosyltransferase subunit (protein, UniProt P39656 43-456)
chain: SGPRTLVLLDNLNVRETHSLFFRSLKDRGFELTFKTADDPSLSLIKYGEFLYDNLIIFSPSVEDFGGNINVETISAFIDGGGSVLVAASSDIGDPLRELGSECGIEFDEEKTAVIDHHNYDISDLGQHTLIVADTENLLKAPTIVGKSSLNPILFRGVGMVADPDNPLVLDILTGSSTSYSFFPDKPITQYPHAVGKNTLLIAGLQARNNARVIFSGSLDFFSDSFFNSAVQKAAPGSQRYSQTGNYELAVALSRWVFKEEGVLRVGPVSHHRVGETAPPNAYTVTDLVEYSIVIQQLSNGKWVPFDGDDIQLEFVRIDPFVRTFLKKKGGKYSVQFKLPDVYGVFQFKVDYNRLGYTHLYSSTQVSVRPLQHTQYERFIPSAYPYYASAFSMMLGLFIFSIVFLHMKEKEKSD
Regarding B1, the binding result (with KV11.1-G601S (human) [3]; in test [4]) was “binds” each time.

B2: glucosidase II alpha subunit (protein, UniProt Q14697 29-944)
chain: ITLAVDRSNFKTCEESSFCKRQRSIRPGLSPYRALLDSLQLGPDSLTVHLIHEVTKVLLVLELQGLQKNMTRFRIDELEPRRPRYRVPDVLVADPPIARLSVSGRDENSVELTMAEGPYKIILTARPFRLDLLEDRSLLLSVNARGLLEFEHQRAPRVSQGSKDPAEGDGAQPEETPRDGDKPEETQGKAEKDEPGAWEETFKTHSDSKPYGPMSVGLDFSLPGMEHVYGIPEHADNLRLKVTEGGEPYRLYNLDVFQYELYNPMALYGSVPVLLAHNPHRDLGIFWLNAAETWVDISSNTAGKTLFGKMMDYLQGSGETPQTDVRWMSETGIIDVFLLLGPSISDVFRQYASLTGTQALPPLFSLGYHQSRWNYRDEADVLEVDQGFDDHNLPCDVIWLDIEHADGKRYFTWDPSRFPQPRTMLERLASKRRKLVAIVDPHIKVDSGYRVHEELRNLGLYVKTRDGSDYEGWCWPGSAGYPDFTNPTMRAWWANMFSYDNYEGSAPNLFVWNDMNEPSVFNGPEVTMLKDAQHYGGWEHRDVHNIYGLYVHMATADGLRQRSGGMERPFVLARAFFAGSQRFGAVWTGDNTAEWDHLKISIPMCLSLGLVGLSFCGADVGGFFKNPEPELLVRWYQMGAYQPFFRAHAHLDTGRREPWLLPSQHNDIIRDALGQRYSLLPFWYTLLYQAHREGIPVMRPLWVQYPQDVTTFNIDDQYLLGDALLVHPVSDSGAHGVQVYLPGQGEVWYDIQSYQKHHGPQTLYLPVTLSSIPVFQRGGTIVPRWMRVRRSSECMKDDPITLFVALSPQGTAQGELFLDDGHTFNYQTRQEFLLRRFSFSGNTLVSSSADPEGHFETPIWIERVVIIGAGKPAAVVLQTKGSPESRLSFQHDPETSVLVLRKPGINVASDWSIHLR
Turning to B2, the binding result (in the test with KV11.1-G601S (human) [3]; in test [4]) was “binds” each time.
